PubChem BioAssay AID1224830, NIAID, 2016

Aim: 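Regulators of TLR4 signalling towards TNF-alpha in macrophage-like cells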 (primary screen)
System: human THP-1 monocytic leukaemia cells, TNF dual-luciferase reporter clone, PMA-differentiated to macrophage-like cells
Knock-down reagent: siRNA pool against human genes, 50 nM
Timing: LPS for 4 h, given about 3 days after siRNA transfection
Challenge: bacterial LPS (TLR4 ligand), 10 ng/ml
Measured: 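TNF firefly reporter luminescence divided by renilla, normalised to the plate median, then turned into a robust z-score for each replicate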
Scale: TNF reporter robust z-score: higher = stronger TNF reporter response to LPS
Hit rule: 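Each well counts as active if its z-score is over 2.8 or under -1.5; controls are left without a call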
The deposit covers about 18,000 reagents; shown is a random part of them. About 2,900 of all reagents (16%) were called active. 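Calls are made per well; low scores hint the gene aids the LPS response, high scores that it dampens it.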 Entries without a mark were called inactive. Repeated entries: four replicate wells of each siRNA pool. Reagent sequences are not shown.

LCN10 (GeneID 414332) showed TNF reporter robust z-score -1.66 (active).
LCN10 (GeneID 414332) showed TNF reporter robust z-score 0.42.
Against LCN10 (GeneID 414332), the values are TNF reporter robust z-score -0.47.
Knock-down of LCN10 (GeneID 414332) gave: TNF reporter robust z-score 1.65.
ATG10 (GeneID 83734) showed TNF reporter robust z-score -0.02.
Depletion of ATG10 (GeneID 83734) gave: TNF reporter robust z-score -0.58.
ATG10 (GeneID 83734) scored TNF reporter robust z-score 0.45.
Knock-down of ATG10 (GeneID 83734) gave: TNF reporter robust z-score -0.11.
MYH7 (GeneID 4625) gave TNF reporter robust z-score 0.53.
Depletion of MYH7 (GeneID 4625) gave: TNF reporter robust z-score 1.75.
Knock-down of MYH7 (GeneID 4625) came out at: TNF reporter robust z-score 0.86.
With knock-down of MYH7 (GeneID 4625), the record shows TNF reporter robust z-score 2.42.
Knock-down of B4GALT6 (GeneID 9331) resulted in: TNF reporter robust z-score -0.28.
After knock-down of B4GALT6 (GeneID 9331) the results were TNF reporter robust z-score 0.14.
Knock-down of B4GALT6 (GeneID 9331) resulted in: TNF reporter robust z-score 0.17.
For B4GALT6 (GeneID 9331), the values are TNF reporter robust z-score 0.83.
MATN2 (GeneID 4147) gave TNF reporter robust z-score -1.2.
MATN2 (GeneID 4147) showed TNF reporter robust z-score -0.39.
MATN2 (GeneID 4147) showed TNF reporter robust z-score -0.11.

Active calls, among the entries above:
LCN10 (GeneID 414332) — TNF reporter robust z-score = -1.66 (active)
